Assay results from patent US20210015811A1, “METHODS OF TREATING A PULMONARY BACTERIAL INFECTION USING FLUOROQUINOLONES” (HORIZON ORPHAN, LLC, priority 2009, published 2021).
At least one structure is not confirmed: it was looked up by name or label, or the drawing left a doubt.

System: isogenic P. aeruginosa strains PAM1020, PAM1032, PAM1481, PAM1573
Assay: Aerobic and hypoxic time-kill assays (bactericidal activity)
Type: cell-based, Pseudomonas aeruginosa
Settings: each strain, each levofloxacin concentration (32-1,024 mg/L), aerobic and hypoxic conditions (p>0.05 between conditions)

`C[C@H]1COc2c(N3CCN(C)CC3)c(F)cc3c(=O)c(C(=O)O)cn1c23` [levofloxacin] was tested, and the “time to rapid and sustained in vitro bactericidal activity” value was no more than 10 min.
